# Test results published in paper PMC3368869.
# Sequences of proteins named here, by UniProt entry; tags and fusion partners are left off. A change or cut given only in a name is not applied to a line headed by its entry.
# UniProt Q9VJZ5: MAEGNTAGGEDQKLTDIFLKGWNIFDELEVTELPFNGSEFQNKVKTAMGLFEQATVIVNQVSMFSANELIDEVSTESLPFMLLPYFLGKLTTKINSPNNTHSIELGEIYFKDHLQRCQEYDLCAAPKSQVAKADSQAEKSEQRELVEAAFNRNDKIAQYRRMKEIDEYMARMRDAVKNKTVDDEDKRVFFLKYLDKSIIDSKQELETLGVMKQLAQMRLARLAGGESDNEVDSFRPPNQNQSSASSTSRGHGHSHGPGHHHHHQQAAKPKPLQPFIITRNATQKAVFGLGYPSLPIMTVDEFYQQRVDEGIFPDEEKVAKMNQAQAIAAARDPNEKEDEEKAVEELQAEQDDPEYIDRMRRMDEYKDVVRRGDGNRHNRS
# UniProt P23696: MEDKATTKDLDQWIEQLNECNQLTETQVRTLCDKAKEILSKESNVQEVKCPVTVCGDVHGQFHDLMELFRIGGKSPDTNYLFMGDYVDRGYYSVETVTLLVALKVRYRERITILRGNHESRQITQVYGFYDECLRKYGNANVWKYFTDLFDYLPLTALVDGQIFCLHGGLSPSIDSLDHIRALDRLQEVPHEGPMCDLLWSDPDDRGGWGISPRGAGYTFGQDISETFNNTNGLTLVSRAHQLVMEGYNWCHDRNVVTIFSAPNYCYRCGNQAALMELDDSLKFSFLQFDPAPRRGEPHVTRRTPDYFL
# Results are given in words; binding and its absence hold for the method and conditions named. In cells and extracts the contact can be indirect. For some assays here: Binding can be weak; no strength is given.
# What was measured:
# [1] = molecular target: FLAG3-Tap42^WT (wild type Drosophila Tap42) (Drosophila melanogaster) (UniProt Q9VJZ5); test: co-IP; FLAG immunoprecipitation (anti-FLAG-agarose, overnight at 4°C) from clarified lysates of transfected Drosophila S2 cells; lysis buffer 20 mM Tris-HCl pH 8.0, 150 mM NaCl, 1% Igepal, protease inhibitors; Western blot with epitope tag antibodies
# [2] = molecular target: FLAG3-Tap42^ED (phosphatase binding-defective mutant of Tap42, R152E K155D) (Drosophila melanogaster); test: as above
Molecule,binding [1],binding [2]
HA3-Mts (Drosophila PP2A catalytic subunit) (from UniProt P23696 1-309) (enzyme),binds,–
"HA3-PP4 (Drosophila PP4 catalytic subunit) (enzyme, UniProt O76932 1-307) MSDYSDLDRQIEQLKRCEIIKENEVKALCAKAREILVEEGNVQRVDSPVTVCGDIHGQFYDLKELFKVGGDVPEKNYLFMGDFVDRGYYSVETFLLLLALKVRYPDRITLIRGNHESRQITQVYGFYDECLRKYGSTAVWRYCTEIFDYLSLSAIIDGKIFCVHGGLSPSIQYLDQIRSIDRKQEVPHDGPMCDLLWSDPEDQTGWGVSPRGAGYLFGSDVVSQFNRTNDIDMICRAHQLVMEGFKWHFNETVLTVWSAPNYCYRCGNVAAILELNEYLHRDFVIFEAAPQESRGIPSKKPQADYFL",binds,no binding
"HA3-PPV (Drosophila PP6 catalytic subunit) (enzyme, UniProt Q27884 1-303) MGDVDKWIEDVKKCKYLPENELKKLCEMVCDILLEETNILPVSTPVTVCGDIHGQFYDLEQLFRTGGQVPHTNYIFMGDFVDRGYYSLETFTRLLTLKARYPSRITLLRGNHETRQITKVYGFFDECFSKYGNANGWKYCCKVFDLLTIAAIIDEEVLCVHGGLSPEIITLDQIRTIDRNGEIPYKGAFCDLVWSDPEDMEYWGQSPRGAGWLFGHNVTKDFMAINNLNLICRAHQLVNEGIKYMFDGKLVTVWSAPNYCYRCGNVAAILSFETAEKRQTKIFLAVPDAERVIPKQNTTPYFL",binds,no binding
